This is one part of the list.

Chains of the proteins cited; added tags and fusions are not shown.
UniProt Q0JBA9, entry or part of it: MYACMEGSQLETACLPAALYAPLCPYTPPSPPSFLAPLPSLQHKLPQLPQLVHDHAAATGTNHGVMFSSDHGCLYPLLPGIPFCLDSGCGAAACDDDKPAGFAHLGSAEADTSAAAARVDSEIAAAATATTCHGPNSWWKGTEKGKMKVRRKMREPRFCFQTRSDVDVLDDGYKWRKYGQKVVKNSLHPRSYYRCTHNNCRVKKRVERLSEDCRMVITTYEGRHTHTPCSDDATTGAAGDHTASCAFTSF

The target in the assay is OsWRKY34 (Oryza sativa, UniProt Q0JBA9 1-250). Nature of the assay: protein-binding microarray (RPBM); PBS, 2% BSA, 51.3 ng/ul salmon testes DNA, 50 uM zinc acetate, 200 nM TF, 25 C, 1 h; high values mean tight binding. To be noted: protein: recombinant; tags: N-terminal polyhistidine and DsRed monomer fusion (pET32a); label: CyDye5-dUTP incorporated in the synthesized complementary strand; 3' TTTTT single-stranded linker to array surface; dsDNA, one strand shown. Summed up: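 Transcription factors, each fused N-terminally to a polyhistidine tag and DsRed, were expressed in E. coli BL21-CodonPlus and purified on Ni–NTA. A custom Agilent array was made double-stranded by primer extension with Cy5-dUTP and blocked with 2% BSA. It was incubated with 200 nM protein in PBS, 2% BSA, salmon testes DNA and 50 µM zinc acetate at 25 °C for 1 h, then washed. The binding signal is per-feature fluorescence intensity (arbitrary units) read on an Axon 4000B scanner.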
Regarding “CCGGCCCCTTTTTTTCCCGGGGATCCGGTGCGTGCAGGAACGGAGTCACCTAGTGCAG”, the binding signal is 9630 fluorescence intensity (a.u.).

Regarding “CTACTCCACAGCATCCATCATCCACAGCTGAGAGATTTGACGGAGTCACCTAGTGCAG”, the binding signal was 9610 fluorescence intensity (a.u.).

In the case of “CTCTTGTTGCTTCTGGTATGAATAAGGATGACGCCTCTCACGGAGTCACCTAGTGCAG”, the binding signal was 8600 fluorescence intensity (a.u.).

Take “AAATCTGTAGCCCGCTGCTTTTCTCTCTCCTTATTTATCTCGGAGTCACCTAGTGCAG”: the binding signal was 11200 fluorescence intensity (a.u.).

With “AAGGCTTATCACTTCGATTTTTATTTTAGTCCTTGTACTTCGGAGTCACCTAGTGCAG”, the binding signal was 8460 fluorescence intensity (a.u.).

In the case of “CCTAAACACCTTTGTACCTTTTGGCATCTCAATTCTTTGGCGGAGTCACCTAGTGCAG”, the binding signal was 8270 fluorescence intensity (a.u.).

For the sequence “CGCCCGCCACAGCAGCCGCTCCGCCACTGCCCGCAGCCGCCGGAGTCACCTAGTGCAG”, the binding signal is 8150 fluorescence intensity (a.u.).

Turning to “GGGGTGTTTGGTTCGGAAAGTGATCCTCATGTGCAGTTGACGGAGTCACCTAGTGCAG”, the binding signal was 12300 fluorescence intensity (a.u.).

For “TCTCGGCCTCTGAAAGCCCATATACAATTGCCTTACCTGTCGGAGTCACCTAGTGCAG”, the binding signal is 8790 fluorescence intensity (a.u.).

Take “AACATTATATAACACCTACACATCGTGAGATCCATGCATCCGGAGTCACCTAGTGCAG”: the binding signal was 9590 fluorescence intensity (a.u.).

Consider “CACAAGTGAACTCCACCGCGGCGTCCGATCGGAAATCAACCGGAGTCACCTAGTGCAG”, for which the binding signal is 8090 fluorescence intensity (a.u.).

Take “TCATGTCCTCATGTTGCAGTTGTCTTTTCCTTGTCTCTCCCGGAGTCACCTAGTGCAG”: the binding signal is 9050 fluorescence intensity (a.u.).

As to “CGTTGACCTCACCGCTGCCGCCATCGTCGCCACCTTCGCCCGGAGTCACCTAGTGCAG”, the binding signal is 10200 fluorescence intensity (a.u.).

As to “AAACGCTATTGACTTTTTTTATAAATGTATGACCATTCGTCGGAGTCACCTAGTGCAG”, the binding signal is 10400 fluorescence intensity (a.u.).

On to “TCTTCCCGCCTCGCCACCGCCGCCGCTCGCCTCACCGATGCGGAGTCACCTAGTGCAG”, for which the binding signal was 10200 fluorescence intensity (a.u.).

“GCACAGGCCACGCACCCCATGTTGCTCATCCAATGTGACGCGGAGTCACCTAGTGCAG”: the binding signal is 8210 fluorescence intensity (a.u.).

For the sequence “ATGTTATCGCTATCCCTATTATAAAACTTGCTCGTATGAACGGAGTCACCTAGTGCAG”, the binding signal is 8120 fluorescence intensity (a.u.).

As for “ACTTTTTTTACAATCTGGTCCTTTATGAACATTCTTTTTTCGGAGTCACCTAGTGCAG”, the binding signal was 8080 fluorescence intensity (a.u.).

Regarding “TGCAGAATCGCTCACCTTCTTCTTCTTCTTCTTCATGGGCCGGAGTCACCTAGTGCAG”, the binding signal was 9860 fluorescence intensity (a.u.).

Regarding “CGCAAATGGGCCAGTGGGTCGCTGTCCAGAGTGGGAGGGGCGGAGTCACCTAGTGCAG”, the binding signal was 9470 fluorescence intensity (a.u.).

For “TGTTAACTTTTTAGTACGTGTTTGACTATTCGTTTTATTCCGGAGTCACCTAGTGCAG”, the binding signal was 12800 fluorescence intensity (a.u.).

“GAGAGAGGGGATGGGTACACATGTGTGTCGGTGCGTTTAGCGGAGTCACCTAGTGCAG”: the binding signal was 9740 fluorescence intensity (a.u.).

As for “AGGCCCGTGCAGGAAGGGGCCGGGGCAGTGACCACCACCACGGAGTCACCTAGTGCAG”, the binding signal is 13300 fluorescence intensity (a.u.).

In the case of “CCTCGAACATTGCGACCTTGGCGAACACTGAGGTGTTGACCGGAGTCACCTAGTGCAG”, the binding signal was 8240 fluorescence intensity (a.u.).

Regarding “CTACTACCCGGCCTCTCGCCTTCTCGCGCGGCCGCGATTTCGGAGTCACCTAGTGCAG”, the binding signal is 9180 fluorescence intensity (a.u.).

With “CGCCACCACAAACCGCCGCCGCCTCCTCCTCTCCTATCTGCGGAGTCACCTAGTGCAG”, the binding signal was 8280 fluorescence intensity (a.u.).

As for “CACGGTTTTTATTATTTTTTTTGGATCCAATTGACACATACGGAGTCACCTAGTGCAG”, the binding signal was 9500 fluorescence intensity (a.u.).

“CCAAACACACCACACCCCGCGCCGCGCCGCGCCTTCACTTCGGAGTCACCTAGTGCAG”: the binding signal was 8860 fluorescence intensity (a.u.).

As for “AGGTTCTTATATCAACTGATGTTCTTGCTCGAGGTTTCGACGGAGTCACCTAGTGCAG”, the binding signal is 8630 fluorescence intensity (a.u.).

Regarding “ATACAACGGTGGACCGGTGATGGACTTTACTCTTTCTATACGGAGTCACCTAGTGCAG”, the binding signal was 8480 fluorescence intensity (a.u.).

On to “CTTAGTTTTACCTCTCTATTTTACTTTGTGAGAACATTCCCGGAGTCACCTAGTGCAG”, for which the binding signal is 8460 fluorescence intensity (a.u.).

With “GCACAACTTTTCGTTTTTTATATTTGCACAATTTTTTTTTCGGAGTCACCTAGTGCAG”, the binding signal is 12200 fluorescence intensity (a.u.).

As to “AAATGGTAGTTGTCGCTGTTGTTTCCCAGCACCTCTCGCTCGGAGTCACCTAGTGCAG”, the binding signal is 10800 fluorescence intensity (a.u.).

Consider “ATGGTGATCGGACGGCTGAGATTGCGTGGTGGTGGCGGGACGGAGTCACCTAGTGCAG”, for which the binding signal was 8940 fluorescence intensity (a.u.).

Turning to “AACTGCACTTCCCTTTTCAGCTCTTCTCCAACCTCAATTTCGGAGTCACCTAGTGCAG”, the binding signal is 10100 fluorescence intensity (a.u.).

With “TCTGTTGACCTGTAAATTCTTCTGGGCCATTATCCCAACACGGAGTCACCTAGTGCAG”, the binding signal is 8700 fluorescence intensity (a.u.).

Take “AATTTCCTTGTATTTCTGTTTATTAATCCTATGCTATTTTCGGAGTCACCTAGTGCAG”: the binding signal is 8300 fluorescence intensity (a.u.).

As to “GTGTCCAAACTTTCCTCGAACTCCTCCCCGCCGCATAAATCGGAGTCACCTAGTGCAG”, the binding signal is 8550 fluorescence intensity (a.u.).

For “TCTGGTCAGCACCACTTTGATCCTTGCAATCGCCACATCACGGAGTCACCTAGTGCAG”, the binding signal is 8550 fluorescence intensity (a.u.).

For “GATTCTGATGTGACACAAACTTATTAACAATATTCCAACACGGAGTCACCTAGTGCAG”, the binding signal was 9280 fluorescence intensity (a.u.).

With “ATTTTTTCTTTATCTCTCACTCGATTTTCTCACTCAAATTCGGAGTCACCTAGTGCAG”, the binding signal is 11500 fluorescence intensity (a.u.).

“TACTTTGCATCCCTCCACGTTCGGGCATATCATATAGCTCCGGAGTCACCTAGTGCAG”: the binding signal was 8150 fluorescence intensity (a.u.).
